# Measurements as given in patent publication US10160783B2, “Neuroactive 13, 17-substituted steroids as modulators for GABA type-A receptors” (priority 2013, dated 2018).
# How the values were obtained:
# [1] = system: picrotoxin binding site on GABAA receptors; assay: [35S]-TBPS displacement (inhibition of [35S]-TBPS binding); details: Hill coefficient of the TBPS displacement curve; ± SEM
# Protocol: The IC50 values for non-competitive displacers of [^35S]-TBPS from the picrotoxin binding site on GABAA receptors are reported in Table 1.
# Results presented are from duplicate experiments performed in triplicate. Error limits are calculated as standard error of the mean. Methods used are known in the art (see Jiang, X., et al., Neurosteroid analogues. 9. Conformationally constrained pregnanes: structure-activity studies of 13,24-cyclo-18,21-dinorcholane analogues of the GABA modulatory and anesthetic steroids (3α,5α)- and […]. J. Med. Chem., 46: 5334-48 (2003)—the contents of which are hereby incorporated by reference in their entirety).
# Tadpole = Tadpole loss of righting reflex (LRR) and loss of swimming reflex (LSR); format: in vivo; details: Hill coefficient, ± SEM; for Tadpole LRR nHill: loss of righting reflex; for Tadpole LSR nHill: loss of swimming reflex
# Protocol: Table 3 discloses the anesthetic effects of the compounds of the present disclosure. In particular, the anesthetic effect of the compounds of the present disclosure on Loss of Righting Reflex (LRR) and Loss of Swimming Reflex (LSR).
# Methods used are known in the art (see Jiang, X., et al.). Error limits are calculated as standard error of the mean (N=10 or more animals at each of five or more different concentrations).
SMILES,"nHill, Inhibition of [35S]-TBPS Binding [1]",Tadpole LRR nHill (Tadpole),Tadpole LSR nHill (Tadpole)
"C=C[C@H]1CC[C@H]2[C@@H]3CC[C@H]4C[C@H](O)[C@@H](OC)C[C@]4(C)[C@H]3CC[C@]12C(C)=O [KK-140, 1-[(2β,3α,5α)-3-Hydroxy-2-Methoxy-18-norpregn-20-en-13-yl]ethanone]",0.79 ± 0.07,−1.80 ± 0.10,−3.5 ± 0.3
"C=C[C@H]1CC[C@H]2[C@@H]3C[C@@H](OC)[C@H]4C[C@H](O)CC[C@]4(C)[C@H]3CC[C@]12C(C)=O [KK-143, 1-[(3α,5α,6β)-3-Hydroxy-6-methoxy-18-norpregn-20-en-13-yl]ethanone]",1.14 ± 0.08,−1.80 ± 0.27,−36.3 ± 0.1
"C=C[C@H]1CC[C@H]2[C@@H]3CC[C@H]4C[C@H](O)CC[C@]4(C)[C@H]3[C@@H](OC)C[C@]12C(C)=O [KK-144, 1-[(3α,5α,11β)-3-Hydroxy-11-methoxy-18-norpregn-20-en-13-yl]ethanone]",1.31 ± 0.32,−2.25 ± 0.15,−33.3 ± 0.1
"C=C[C@H]1CC[C@H]2[C@@H]3CC[C@H]4C[C@H](O)CC[C@]4(COC)[C@H]3CC[C@]12C(C)=O [KK-145, 1-[(3α,5α)-3-Hydroxy-19-methoxy-18-norpregn-20-en-13-yl]ethanone]",1.21 ± 0.10,−2.55 ± 0.42,−33.3 ± 0.1
"C=C[C@H]1CC[C@H]2[C@@H]3CC[C@H]4C[C@H](O)CC[C@]4(C)[C@H]3CC[C@]12C(C)=O [XJ-99, 1-[(3α,5α)-3-Hydroxy-18-norpregn-20-en-13-yl]ethanone]",1.43 ± 0.44,−2.90 ± 0.05,−3.95 ± 0.02
"CC[C@H]1CC[C@H]2[C@@H]3CC[C@H]4C[C@H](O)CC[C@]4(C)[C@H]3CC[C@]12C(C)=O [XJ-100, 1-[(3α,5α)-3-Hydroxy-18-norpregnan-13-yl]ethanone]",0.78 ± 0.24,−1.23 ± 0.44,–
"CC(=O)[C@H]1CC[C@H]2[C@@H]3CC[C@H]4C[C@H](O)CC[C@]4(C)[C@H]3CC[C@]12C(C)=O [ZYC-71, (3α,5α)-13-Acetyl-3-hydroxy-18-norpregnan-20-one]",1.11 ± 0.08,−4.00 ± 0.02,−33.5 ± 0.1
"CC(=O)[C@]12CC[C@H]3[C@@H](CC[C@H]4C[C@H](O)CC[C@@]43C)[C@@H]1CC[C@@H]2[C@@H](C)O [ZYC-72, (3α,5α,20R)-13-Acetyl-18-norpregnane-3,20-diol]",0.70 ± 0.24,−21.3 ± 0.0,–
"CC(=O)[C@]12CC[C@H]3[C@@H](CC[C@H]4C[C@H](O)CC[C@@]43C)[C@@H]1CC[C@@H]2CO [ZYC-73, 1-[(3α,5α,17β)-3-Hydroxy-17-hydroxymethyl-18-norandrostan-13-yl]ethanone]",1.02 ± 0.13,–,–
"CC(=O)[C@]12CC[C@H]3[C@@H](CC[C@H]4C[C@H](O)CC[C@@]43C)[C@@H]1CC[C@@H]2CCl [ZYC-74, 1-[(3α,5α,17β)-17-Chloromethy-3-hydroxy-18-norandrostan-13-yl]ethanone]",1.02 ± 0.17,−2.36 ± 2.35,−33.2 ± 0.2
"C=C[C@]12CC[C@H]3[C@@H](CC[C@H]4C[C@H](O)CC[C@@]43C)[C@@H]1CC[C@@H]2[C@@H](C)O [ZYC-76, (3α,5α,20R)-13-Ethenyl-18-norpregnan-3,20-diol]",1.50 ± 0.21,−1.64 ± 0.58,−35.9 ± 0.1
